From article PMC7556403

The chains behind the UniProt entries cited, without tags or fusion partners. Where a name states a change or a piece, a line headed by the entry shows the natural chain unless it says otherwise.
UniProt P41238: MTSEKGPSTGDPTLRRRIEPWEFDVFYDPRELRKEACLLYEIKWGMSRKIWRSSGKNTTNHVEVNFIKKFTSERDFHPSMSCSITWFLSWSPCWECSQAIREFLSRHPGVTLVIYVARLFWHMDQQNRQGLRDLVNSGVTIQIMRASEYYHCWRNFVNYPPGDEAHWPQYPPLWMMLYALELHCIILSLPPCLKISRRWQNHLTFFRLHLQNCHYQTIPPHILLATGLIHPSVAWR

Biological target: MBP-APO1 WT (aggregated form) (human) (UniProt P41238)
Assay: EMSA
Details: Kd only plotted; 50 nM nucleic acid, 20 mM HEPES, 50 mM NaCl, 5 mM DTT, 10% glycerol (0.4 U RNase inhibitor for RNA), pH not stated for EMSA (HEPES pH 7.5 in protein buffers); recombinant protein; residues 1-236; protein details: MBP (N-terminal fusion, pMAL-C5X); label: 5' FAM; single-stranded DNA

**Q.** Does “ATTATTATTATTCAAATTTATTTATTTATTTATGGTGTTTGGTGTGGTTG [FAM-50 ssDNA]” bind?
**A.** binds

Construct, isoform or probe ends are uncertain for at least one entry.
